Reference: US9999690B2, “Labeled compounds and methods of imaging, diagnosing cartilage disorders and diseases, and monitoring cartilage health using labeled and unlabeled compounds” (Perosphere Inc., priority 2013, dated 2018)
The source gives many values for each of these; only a part stands here.

Test: Tissue distribution of radioactivity by Quantitative Whole-Body Autoradiography (QWBA), Group 4
Assay type: in vivo
Conditions: rat, single IV 2 mg/kg
Method: A study was conducted to determine the pharmacokinetics, rates and routes of excretion with mass baseline and tissue distribution of radioactivity, after a single intravenous dose administration of formula XIII (also referred to as [^14C]DAP) was administered to the rats by tail vein intravenous injection at a
The study was conducted on 19 male rats divided into 4 groups. The first group of 6 rats was used for blood collection (Group 1); the second group of 4 rats was used for urine, feces, cage rinses and wipes and carcasses collection (Group 2); the third group of 4 rats was used for expired air collection (Group 3); the fourth group of 5 rats was used for terminal blood/serum and tissue distribution by Quantitative Whole-Body Autoradiography (QWBA) (Group 4).
For Group 4, formula XIII (QWBA was run at 1, 8, 12, 24 and 72 hours post dose. After terminal blood collection, each euthanized animal was frozen in a hexane/dry ice bath and embedded in a 2% carboxymethylcellulose matrix according to MPI Research SOP ADME-112. The embedded carcasses were sectioned according to MPI Research SOP ADME-113 on a Leica CM3600 Cyromacrotome set to maintain −10 to −30° C. At least four fortified quality control standards of known radioactive concentration were placed into the frozen block prior to sectioning and used for section thickness quality control. The quality control standards were sectioned under the same conditions as the specimen. The intrasection and intersection variation of collected sections were determined by analyzing the quality control standards. Section variation must be less than 20% for quantitative analysis. Sections that were approximately 40μm thick were taken in the sagittal plane. Appropriate sections selected at various levels of interest in the block were collected to encompass the following tissues, organs, and biological fluids, where possible: adrenal gland, bladder (urinary) and contents (urine), blood (cardiac), bone, bone marrow, brain, eye, fat (brown), fat (white), heart, kidney, large intestine/cecum and contents, liver, lung, muscle, pancreas, prostate, salivary glands, skin, small intestine and contents, spleen, stomach and contents, testes, thymus, thyroid, mesenteric lymph nodes, and epididymis. A set of sections were mounted, exposed to phosphor imaging screens and scanned using the Storm 860 image acquisition system according to MPI Research SOP ADME-112. Quantification, relative to the calibration standards, were performed by image densitometry using MCID™ image analysis software according to MPI Research SOP ADME-114. A standard curve was constructed from the integrated response (MDC/mm2) and the nominal concentrations of the [^14C]Glucose calibration standards. Relative error should be less than 0.5 for each point on the curve. The concentrations of radioactivity were expressed as μCi/g and were converted to μg or ng-equivalents of DAP per gram of sample (μg- or ng-eq/g) using the specific activity of administered [^14C]DAP dose formulation. A lower limit of quantification (LLOQ) was applied to the data. The LLOQ was determined using the radioactive concentration of the lowest calibration standard used to generate a calibration curve divided by the specific activity of the dose formulation (μCi/ug). Artifacts, such as those produced by dislodged contents of the alimentary canal, were excluded from analysis during image analysis.

## [2H]C1([2H])N(CCCNC(=O)[C@@H](N)CCCNC(=N)N)C([2H])([2H])C([2H])([2H])N(CCCNC(=O)[C@@H](N)CCCNC(=N)N)C1([2H])[2H] [formula XIII]
1 Hour
  Concentration of Radioactivity in Adrenal gland: 1747 ng Equivalents [^14C]DAP/g
  Concentration of Radioactivity in Blood: 1794 ng Equivalents [^14C]DAP/g
  Concentration of Radioactivity in Bone: 445 ng Equivalents [^14C]DAP/g
  Concentration of Radioactivity in Bulbourethral gland: 2841 ng Equivalents [^14C]DAP/g
  Concentration of Radioactivity in Cecum: 3182 ng Equivalents [^14C]DAP/g
  Concentration of Radioactivity in Cecum contents: 543 ng Equivalents [^14C]DAP/g
  Concentration of Radioactivity in Cerebellum: 223 ng Equivalents [^14C]DAP/g
  Concentration of Radioactivity in Cerebrum: 252 ng Equivalents [^14C]DAP/g
  Concentration of Radioactivity in Diaphragm: 1782 ng Equivalents [^14C]DAP/g
  Concentration of Radioactivity in Epididymis: 2539 ng Equivalents [^14C]DAP/g
  Concentration of Radioactivity in Esophageal contents: 498 ng Equivalents [^14C]DAP/g
  Concentration of Radioactivity in Esophagus: 2248 ng Equivalents [^14C]DAP/g
  Concentration of Radioactivity in Exorbital gland: 3586 ng Equivalents [^14C]DAP/g
  Concentration of Radioactivity in Eye (lens): 325 ng Equivalents [^14C]DAP/g
  Concentration of Radioactivity in Fat (brown): 2750 ng Equivalents [^14C]DAP/g
  Concentration of Radioactivity in Fat (white): 1144 ng Equivalents [^14C]DAP/g
  Concentration of Radioactivity in Harderian gland: 1506 ng Equivalents [^14C]DAP/g
  Concentration of Radioactivity in Intraorbital gland: 3349 ng Equivalents [^14C]DAP/g
  Concentration of Radioactivity in Large intestine: 4060 ng Equivalents [^14C]DAP/g
  Concentration of Radioactivity in Lung: 3486 ng Equivalents [^14C]DAP/g
  Concentration of Radioactivity in Lymph nodes: 3855 ng Equivalents [^14C]DAP/g
  Concentration of Radioactivity in Medulla: 188 ng Equivalents [^14C]DAP/g
  Concentration of Radioactivity in Muscle: 717 ng Equivalents [^14C]DAP/g
  Concentration of Radioactivity in Myocardium: 1978 ng Equivalents [^14C]DAP/g
  Concentration of Radioactivity in Nasal turbinates: 3326 ng Equivalents [^14C]DAP/g
  Concentration of Radioactivity in Olfactory lobe: 609 ng Equivalents [^14C]DAP/g
  Concentration of Radioactivity in Pancreas: 2923 ng Equivalents [^14C]DAP/g
  Concentration of Radioactivity in Pituitary gland: 3786 ng Equivalents [^14C]DAP/g
  Concentration of Radioactivity in Preputial gland: 3702 ng Equivalents [^14C]DAP/g
  Concentration of Radioactivity in Prostate gland: 4652 ng Equivalents [^14C]DAP/g
  Concentration of Radioactivity in Salivary gland: 4047 ng Equivalents [^14C]DAP/g
  Concentration of Radioactivity in Seminal vesicles: 331 ng Equivalents [^14C]DAP/g
  Concentration of Radioactivity in Skin: 3318 ng Equivalents [^14C]DAP/g
  Concentration of Radioactivity in Small intestinal contents: 3191 ng Equivalents [^14C]DAP/g
  Concentration of Radioactivity in Spinal cord: 213 ng Equivalents [^14C]DAP/g
  Concentration of Radioactivity in Spleen: 3699 ng Equivalents [^14C]DAP/g
  Concentration of Radioactivity in Stomach: 4422 ng Equivalents [^14C]DAP/g
  Concentration of Radioactivity in Stomach contents: 196 ng Equivalents [^14C]DAP/g
  Concentration of Radioactivity in Testes: 895 ng Equivalents [^14C]DAP/g
  Concentration of Radioactivity in Thyroid gland: 2805 ng Equivalents [^14C]DAP/g
  Concentration of Radioactivity in Uveal tract: 2565 ng Equivalents [^14C]DAP/g
  Concentration of Radioactivity in Vitreous humor: 494 ng Equivalents [^14C]DAP/g
8 Hours
  Concentration of Radioactivity in Adrenal gland: 715 ng Equivalents [^14C]DAP/g
  Concentration of Radioactivity in Blood: 328 ng Equivalents [^14C]DAP/g
  Concentration of Radioactivity in Bone: 250 ng Equivalents [^14C]DAP/g
  Concentration of Radioactivity in Bulbourethral gland: 1086 ng Equivalents [^14C]DAP/g
  Concentration of Radioactivity in Cecum: 1868 ng Equivalents [^14C]DAP/g
  Concentration of Radioactivity in Cecum contents: 1134 ng Equivalents [^14C]DAP/g
  Concentration of Radioactivity in Cerebellum: 180 ng Equivalents [^14C]DAP/g
  Concentration of Radioactivity in Cerebrum: 228 ng Equivalents [^14C]DAP/g
  Concentration of Radioactivity in Diaphragm: 582 ng Equivalents [^14C]DAP/g
  Concentration of Radioactivity in Epididymis: 1041 ng Equivalents [^14C]DAP/g
  Concentration of Radioactivity in Esophageal contents: 434 ng Equivalents [^14C]DAP/g
  Concentration of Radioactivity in Esophagus: 1842 ng Equivalents [^14C]DAP/g
  Concentration of Radioactivity in Exorbital gland: 1415 ng Equivalents [^14C]DAP/g
  Concentration of Radioactivity in Eye (lens): 183 ng Equivalents [^14C]DAP/g
  Concentration of Radioactivity in Fat (brown): 1097 ng Equivalents [^14C]DAP/g
  Concentration of Radioactivity in Fat (white): 485 ng Equivalents [^14C]DAP/g
  Concentration of Radioactivity in Harderian gland: 846 ng Equivalents [^14C]DAP/g
  Concentration of Radioactivity in Intraorbital gland: 1660 ng Equivalents [^14C]DAP/g
  Concentration of Radioactivity in Large intestine: 2237 ng Equivalents [^14C]DAP/g
  Concentration of Radioactivity in Lung: 1635 ng Equivalents [^14C]DAP/g
  Concentration of Radioactivity in Lymph nodes: 2192 ng Equivalents [^14C]DAP/g
  Concentration of Radioactivity in Medulla: 204 ng Equivalents [^14C]DAP/g
  Concentration of Radioactivity in Muscle: 405 ng Equivalents [^14C]DAP/g
  Concentration of Radioactivity in Myocardium: 832 ng Equivalents [^14C]DAP/g
  Concentration of Radioactivity in Nasal turbinates: 3117 ng Equivalents [^14C]DAP/g
  Concentration of Radioactivity in Olfactory lobe: 386 ng Equivalents [^14C]DAP/g
  Concentration of Radioactivity in Pancreas: 2819 ng Equivalents [^14C]DAP/g
  Concentration of Radioactivity in Pituitary gland: 1802 ng Equivalents [^14C]DAP/g
  Concentration of Radioactivity in Prostate gland: 8806 ng Equivalents [^14C]DAP/g
  Concentration of Radioactivity in Salivary gland: 2060 ng Equivalents [^14C]DAP/g
  Concentration of Radioactivity in Seminal vesicles: 274 ng Equivalents [^14C]DAP/g
  Concentration of Radioactivity in Skin: 1893 ng Equivalents [^14C]DAP/g
  Concentration of Radioactivity in Small intestinal contents: 1019 ng Equivalents [^14C]DAP/g
  Concentration of Radioactivity in Spinal cord: 187 ng Equivalents [^14C]DAP/g
  Concentration of Radioactivity in Spleen: 1896 ng Equivalents [^14C]DAP/g
  Concentration of Radioactivity in Stomach: 1348 ng Equivalents [^14C]DAP/g
  Concentration of Radioactivity in Stomach contents: 368 ng Equivalents [^14C]DAP/g
  Concentration of Radioactivity in Testes: 444 ng Equivalents [^14C]DAP/g
  Concentration of Radioactivity in Thyroid gland: 2049 ng Equivalents [^14C]DAP/g
  Concentration of Radioactivity in Vitreous humor: 322 ng Equivalents [^14C]DAP/g
12 Hours
  Concentration of Radioactivity in Adrenal gland: 755 ng Equivalents [^14C]DAP/g
  Concentration of Radioactivity in Blood: 212 ng Equivalents [^14C]DAP/g
  Concentration of Radioactivity in Bone: 356 ng Equivalents [^14C]DAP/g
  Concentration of Radioactivity in Bulbourethral gland: 3753 ng Equivalents [^14C]DAP/g
  Concentration of Radioactivity in Cecum: 2648 ng Equivalents [^14C]DAP/g
  Concentration of Radioactivity in Cecum contents: 2391 ng Equivalents [^14C]DAP/g
  Concentration of Radioactivity in Diaphragm: 603 ng Equivalents [^14C]DAP/g
  Concentration of Radioactivity in Epididymis: 592 ng Equivalents [^14C]DAP/g
  Concentration of Radioactivity in Esophageal contents: 185 ng Equivalents [^14C]DAP/g
